In PMC6548137:
Results are given in words; binding and its absence hold for the method and conditions named. Some binding calls cover weakened binding; strength is not graded here. For some assays here: Where a sequence is shown, tags or fusion partners need not be part of it.

By UniProt entry, the sequences of proteins in these tests, tags left out. Residues count along the entry.
UniProt Q9ESJ0: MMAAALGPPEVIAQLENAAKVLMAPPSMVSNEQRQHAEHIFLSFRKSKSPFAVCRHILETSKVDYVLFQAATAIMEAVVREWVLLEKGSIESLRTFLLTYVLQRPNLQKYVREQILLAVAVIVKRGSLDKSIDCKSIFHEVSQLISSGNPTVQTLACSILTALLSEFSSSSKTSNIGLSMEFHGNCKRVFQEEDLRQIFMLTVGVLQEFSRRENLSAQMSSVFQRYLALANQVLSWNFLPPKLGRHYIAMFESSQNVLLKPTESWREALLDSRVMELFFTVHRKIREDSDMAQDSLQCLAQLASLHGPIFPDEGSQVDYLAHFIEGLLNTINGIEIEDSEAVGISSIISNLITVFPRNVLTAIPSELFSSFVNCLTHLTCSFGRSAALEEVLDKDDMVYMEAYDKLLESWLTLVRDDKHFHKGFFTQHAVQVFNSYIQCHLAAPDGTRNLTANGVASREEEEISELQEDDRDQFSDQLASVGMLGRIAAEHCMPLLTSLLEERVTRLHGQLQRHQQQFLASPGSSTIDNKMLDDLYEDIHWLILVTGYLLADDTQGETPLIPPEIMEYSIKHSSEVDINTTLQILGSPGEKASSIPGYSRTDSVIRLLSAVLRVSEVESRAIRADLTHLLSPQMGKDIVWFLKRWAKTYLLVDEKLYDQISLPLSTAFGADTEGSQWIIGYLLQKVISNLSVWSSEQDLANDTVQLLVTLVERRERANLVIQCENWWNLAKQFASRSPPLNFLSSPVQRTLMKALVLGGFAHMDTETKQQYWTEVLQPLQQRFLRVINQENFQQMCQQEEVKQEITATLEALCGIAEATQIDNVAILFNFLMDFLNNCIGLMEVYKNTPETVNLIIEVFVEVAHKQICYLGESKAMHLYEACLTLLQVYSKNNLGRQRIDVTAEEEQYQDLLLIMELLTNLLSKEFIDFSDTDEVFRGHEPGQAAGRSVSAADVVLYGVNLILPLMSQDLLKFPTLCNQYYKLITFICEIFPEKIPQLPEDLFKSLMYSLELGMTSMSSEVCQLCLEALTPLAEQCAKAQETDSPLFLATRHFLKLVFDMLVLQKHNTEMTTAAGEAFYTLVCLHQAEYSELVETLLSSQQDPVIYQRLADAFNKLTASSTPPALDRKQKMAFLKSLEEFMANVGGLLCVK
UniProt P63241, residues 15-154: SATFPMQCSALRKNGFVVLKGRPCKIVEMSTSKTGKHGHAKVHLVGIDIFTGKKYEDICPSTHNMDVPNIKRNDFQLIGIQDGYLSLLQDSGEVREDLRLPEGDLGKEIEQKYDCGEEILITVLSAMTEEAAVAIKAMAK

Tests used:
[1] = biological target: T1, H14-ZZ-bdSUMO-tagged Pdr6 (S. cerevisiae) (UniProt P32767); assay: pull-down; 1 µM H14-ZZ-bdSUMO-tagged NTR with 2 µM human or yeast eIF5A in the presence of 2 µM RanGTP; retrieved via the tagged NTR by anti-Protein A beads, eluted by bdSENP1 protease, SDS-PAGE and Coomassie; both purified
T1 sequence: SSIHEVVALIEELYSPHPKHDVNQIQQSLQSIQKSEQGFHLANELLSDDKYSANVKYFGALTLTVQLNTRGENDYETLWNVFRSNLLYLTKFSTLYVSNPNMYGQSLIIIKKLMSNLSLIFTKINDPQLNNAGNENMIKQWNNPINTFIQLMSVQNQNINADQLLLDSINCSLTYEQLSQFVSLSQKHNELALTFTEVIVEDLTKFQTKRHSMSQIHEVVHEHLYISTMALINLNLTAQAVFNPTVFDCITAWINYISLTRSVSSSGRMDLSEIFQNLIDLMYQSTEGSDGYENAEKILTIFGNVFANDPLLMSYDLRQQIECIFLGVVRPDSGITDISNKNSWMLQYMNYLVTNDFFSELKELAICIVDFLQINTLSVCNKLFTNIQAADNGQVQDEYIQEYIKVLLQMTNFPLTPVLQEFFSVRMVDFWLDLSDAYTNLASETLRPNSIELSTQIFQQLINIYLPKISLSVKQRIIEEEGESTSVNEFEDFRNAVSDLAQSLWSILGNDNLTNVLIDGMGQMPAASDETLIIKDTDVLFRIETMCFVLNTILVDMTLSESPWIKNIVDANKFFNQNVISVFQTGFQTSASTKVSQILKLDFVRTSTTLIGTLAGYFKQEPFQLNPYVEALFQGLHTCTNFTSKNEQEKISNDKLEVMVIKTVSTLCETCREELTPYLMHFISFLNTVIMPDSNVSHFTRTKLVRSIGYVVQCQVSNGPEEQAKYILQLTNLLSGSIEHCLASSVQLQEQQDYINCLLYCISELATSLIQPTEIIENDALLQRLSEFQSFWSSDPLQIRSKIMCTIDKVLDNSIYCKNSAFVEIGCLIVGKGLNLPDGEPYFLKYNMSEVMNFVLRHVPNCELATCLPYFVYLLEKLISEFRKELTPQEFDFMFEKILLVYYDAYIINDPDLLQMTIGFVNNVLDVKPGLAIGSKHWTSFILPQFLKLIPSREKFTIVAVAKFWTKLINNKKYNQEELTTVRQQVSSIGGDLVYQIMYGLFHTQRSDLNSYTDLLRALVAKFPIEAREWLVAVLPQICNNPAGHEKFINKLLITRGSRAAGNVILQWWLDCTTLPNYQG

[2] = biological target: H14-ZZ-bdSUMO-tagged mouse Xpo4 (mouse) (UniProt Q9ESJ0); assay: as above

“human eIF5A (from UniProt P63241 15-154)” was tested, and the binding [1] was “binds” and the binding [2] was “binds”.
